Source: paper PMC8297976
Results are given in words; binding and its absence hold for the method and conditions named. Binding seen in cells or lysates may run through a third protein. Some results given as binding are weak or reduced against the parent protein; the word gives no strength.

The chains behind the UniProt entries cited, without tags or fusion partners.
UniProt F1MUZ3: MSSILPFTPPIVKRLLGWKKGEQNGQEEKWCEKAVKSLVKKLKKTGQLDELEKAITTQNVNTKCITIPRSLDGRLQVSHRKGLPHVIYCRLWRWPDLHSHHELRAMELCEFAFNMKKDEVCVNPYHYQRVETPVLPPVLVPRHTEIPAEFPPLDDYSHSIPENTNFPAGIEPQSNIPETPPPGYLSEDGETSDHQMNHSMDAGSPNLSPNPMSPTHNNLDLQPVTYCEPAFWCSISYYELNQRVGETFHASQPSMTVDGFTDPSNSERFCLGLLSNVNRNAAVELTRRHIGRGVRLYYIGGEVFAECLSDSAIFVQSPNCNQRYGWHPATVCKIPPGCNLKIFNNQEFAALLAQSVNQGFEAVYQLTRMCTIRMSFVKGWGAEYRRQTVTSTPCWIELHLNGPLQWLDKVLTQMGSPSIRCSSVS

Molecular target: Smad3 (bovine (endogenous in liver tissue of dairy cows)) (UniProt F1MUZ3)
Assay: co-IP; endogenous proteins; lysates of bovine normal liver tissue incubated with the antibody at 4°C overnight, then protein A/G plus agarose beads for 4 h; immunoblotting; IgG as negative control

binding: binds
B1: Ufm1 binding protein 1 (Ufbp1) (protein, UniProt Q1LZB0 1-313)
chain: MVSPVVYLVVAALLVGLILFLTRGRGRAAAAAQEPLHNEEVPAAAGRVARPQPLEPEEQRAAGRPRRRRDLGSRLQAQRRAQRVAWADENEEEAIIQAQEEEDIEKPVETHLSGKIGAKKLRKLEEKQARKAQREAEEAEREERKRLESQREAEWKKEEERLRLEEEQKEEEERKAQEEQAQREHEEYLKLKETFVVVEEGVGETMTEEQSHSFLAEFINYIKQSKVVLLEDLASQVGLRTQDTINRIQDLLAEGTLTGVIDDRGKFIYITPEELAAVANFIRQRGRVSITELAQASNSLIAWGRETPAQAPA
